In article doi:10.1101/2025.09.29.679137:
Results are given in words; binding and its absence hold for the method and conditions named. In cells and extracts the contact can be indirect. Some binding calls cover weakened binding; strength is not graded here.

Target: T1, NEPN (bait of the immunoprecipitations from tumor lysates and from the liver metastasis site) (mouse) (UniProt Q9CQ76)
T1 sequence: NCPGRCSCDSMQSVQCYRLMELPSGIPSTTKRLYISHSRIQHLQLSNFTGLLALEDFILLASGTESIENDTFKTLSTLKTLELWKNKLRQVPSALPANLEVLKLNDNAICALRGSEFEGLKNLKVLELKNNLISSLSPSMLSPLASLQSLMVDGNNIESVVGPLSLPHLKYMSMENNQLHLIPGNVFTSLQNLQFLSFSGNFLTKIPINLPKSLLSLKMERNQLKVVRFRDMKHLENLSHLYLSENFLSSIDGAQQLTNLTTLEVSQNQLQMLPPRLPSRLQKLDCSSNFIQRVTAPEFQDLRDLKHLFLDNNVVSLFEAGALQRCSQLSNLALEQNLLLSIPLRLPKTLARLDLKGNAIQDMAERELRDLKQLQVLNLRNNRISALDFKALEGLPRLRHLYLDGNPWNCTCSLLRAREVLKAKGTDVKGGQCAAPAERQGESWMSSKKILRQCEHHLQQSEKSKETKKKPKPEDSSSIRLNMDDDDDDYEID
Experiment: co-IP

- binding: binds
B1: IL-10 (ligand, UniProt P18893 19-178)
chain: SRGQYSREDNNCTHFPVGQSHMLLELRTAFSQVKTFFQTKDQLDNILLTDSLMQDFKGYLGCQALSEMIQFYLVEVMPQAEKHGPEIKEHLNSLGEKLKTLRMRLRRCHRFLPCENKSKAVEQVKSDFNKLQDQGVYKAMNEFDIFINCIEAYMMIKMKS
